doi:10.1101/2021.11.07.467636

The chains behind the UniProt entries cited, without tags or fusion partners.
UniProt Q02455: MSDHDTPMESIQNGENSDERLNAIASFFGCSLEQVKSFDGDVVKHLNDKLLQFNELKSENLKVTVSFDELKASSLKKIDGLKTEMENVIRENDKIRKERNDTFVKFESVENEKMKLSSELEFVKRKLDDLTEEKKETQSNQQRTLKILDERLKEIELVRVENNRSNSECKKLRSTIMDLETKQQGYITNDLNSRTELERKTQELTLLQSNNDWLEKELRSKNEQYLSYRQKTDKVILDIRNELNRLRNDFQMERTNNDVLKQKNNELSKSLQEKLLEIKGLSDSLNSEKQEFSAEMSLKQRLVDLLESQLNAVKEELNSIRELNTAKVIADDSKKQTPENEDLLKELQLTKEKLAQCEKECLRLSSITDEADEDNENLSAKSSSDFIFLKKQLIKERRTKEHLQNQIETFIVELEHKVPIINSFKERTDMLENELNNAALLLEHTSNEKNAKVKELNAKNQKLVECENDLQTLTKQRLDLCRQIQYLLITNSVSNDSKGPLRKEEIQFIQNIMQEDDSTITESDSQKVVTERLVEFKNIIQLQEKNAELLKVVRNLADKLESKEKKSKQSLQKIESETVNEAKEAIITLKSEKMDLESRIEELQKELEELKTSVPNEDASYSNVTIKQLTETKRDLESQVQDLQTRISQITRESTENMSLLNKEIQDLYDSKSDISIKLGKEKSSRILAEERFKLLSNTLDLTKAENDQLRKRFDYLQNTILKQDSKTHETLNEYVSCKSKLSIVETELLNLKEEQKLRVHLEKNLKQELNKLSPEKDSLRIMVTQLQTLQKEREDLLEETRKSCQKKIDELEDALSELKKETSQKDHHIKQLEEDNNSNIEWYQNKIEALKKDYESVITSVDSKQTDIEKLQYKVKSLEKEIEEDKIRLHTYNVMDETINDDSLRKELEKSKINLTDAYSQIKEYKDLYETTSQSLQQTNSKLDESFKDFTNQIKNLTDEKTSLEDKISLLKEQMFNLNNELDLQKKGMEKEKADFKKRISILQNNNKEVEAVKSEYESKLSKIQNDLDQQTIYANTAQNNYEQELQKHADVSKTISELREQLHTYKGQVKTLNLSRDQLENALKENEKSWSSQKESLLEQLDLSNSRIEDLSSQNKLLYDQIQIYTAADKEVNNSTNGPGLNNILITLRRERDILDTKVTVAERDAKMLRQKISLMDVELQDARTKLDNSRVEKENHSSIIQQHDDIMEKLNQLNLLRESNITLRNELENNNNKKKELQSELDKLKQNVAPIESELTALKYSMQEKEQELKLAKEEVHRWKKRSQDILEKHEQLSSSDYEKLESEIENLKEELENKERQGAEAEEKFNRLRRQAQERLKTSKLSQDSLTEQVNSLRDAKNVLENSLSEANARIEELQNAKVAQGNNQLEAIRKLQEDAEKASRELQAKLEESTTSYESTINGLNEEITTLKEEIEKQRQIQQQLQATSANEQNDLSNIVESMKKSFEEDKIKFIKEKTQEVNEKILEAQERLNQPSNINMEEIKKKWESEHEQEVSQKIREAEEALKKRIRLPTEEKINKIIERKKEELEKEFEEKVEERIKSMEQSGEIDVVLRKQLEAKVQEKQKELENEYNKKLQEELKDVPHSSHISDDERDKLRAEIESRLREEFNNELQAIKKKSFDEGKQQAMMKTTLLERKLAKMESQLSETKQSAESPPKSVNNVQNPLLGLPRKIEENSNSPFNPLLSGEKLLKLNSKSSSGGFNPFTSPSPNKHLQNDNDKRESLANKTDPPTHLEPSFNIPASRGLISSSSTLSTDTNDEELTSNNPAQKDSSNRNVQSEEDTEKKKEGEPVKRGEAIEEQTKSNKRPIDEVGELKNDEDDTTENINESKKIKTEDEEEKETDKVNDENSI
UniProt P04147: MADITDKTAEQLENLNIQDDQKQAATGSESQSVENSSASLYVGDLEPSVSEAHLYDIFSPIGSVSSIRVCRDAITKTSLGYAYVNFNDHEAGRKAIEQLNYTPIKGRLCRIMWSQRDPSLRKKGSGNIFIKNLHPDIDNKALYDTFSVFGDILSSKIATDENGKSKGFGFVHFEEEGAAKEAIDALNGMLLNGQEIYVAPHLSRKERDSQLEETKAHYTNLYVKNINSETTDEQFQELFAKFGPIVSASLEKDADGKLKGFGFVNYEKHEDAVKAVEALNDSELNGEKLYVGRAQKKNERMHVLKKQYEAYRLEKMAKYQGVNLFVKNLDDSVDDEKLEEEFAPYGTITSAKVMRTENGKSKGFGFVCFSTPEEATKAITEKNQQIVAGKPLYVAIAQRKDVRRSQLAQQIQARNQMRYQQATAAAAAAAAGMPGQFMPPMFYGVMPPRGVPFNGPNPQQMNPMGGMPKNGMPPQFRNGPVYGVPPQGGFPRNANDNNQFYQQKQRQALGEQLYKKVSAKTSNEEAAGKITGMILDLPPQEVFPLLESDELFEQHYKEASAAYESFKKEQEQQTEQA
UniProt P40457: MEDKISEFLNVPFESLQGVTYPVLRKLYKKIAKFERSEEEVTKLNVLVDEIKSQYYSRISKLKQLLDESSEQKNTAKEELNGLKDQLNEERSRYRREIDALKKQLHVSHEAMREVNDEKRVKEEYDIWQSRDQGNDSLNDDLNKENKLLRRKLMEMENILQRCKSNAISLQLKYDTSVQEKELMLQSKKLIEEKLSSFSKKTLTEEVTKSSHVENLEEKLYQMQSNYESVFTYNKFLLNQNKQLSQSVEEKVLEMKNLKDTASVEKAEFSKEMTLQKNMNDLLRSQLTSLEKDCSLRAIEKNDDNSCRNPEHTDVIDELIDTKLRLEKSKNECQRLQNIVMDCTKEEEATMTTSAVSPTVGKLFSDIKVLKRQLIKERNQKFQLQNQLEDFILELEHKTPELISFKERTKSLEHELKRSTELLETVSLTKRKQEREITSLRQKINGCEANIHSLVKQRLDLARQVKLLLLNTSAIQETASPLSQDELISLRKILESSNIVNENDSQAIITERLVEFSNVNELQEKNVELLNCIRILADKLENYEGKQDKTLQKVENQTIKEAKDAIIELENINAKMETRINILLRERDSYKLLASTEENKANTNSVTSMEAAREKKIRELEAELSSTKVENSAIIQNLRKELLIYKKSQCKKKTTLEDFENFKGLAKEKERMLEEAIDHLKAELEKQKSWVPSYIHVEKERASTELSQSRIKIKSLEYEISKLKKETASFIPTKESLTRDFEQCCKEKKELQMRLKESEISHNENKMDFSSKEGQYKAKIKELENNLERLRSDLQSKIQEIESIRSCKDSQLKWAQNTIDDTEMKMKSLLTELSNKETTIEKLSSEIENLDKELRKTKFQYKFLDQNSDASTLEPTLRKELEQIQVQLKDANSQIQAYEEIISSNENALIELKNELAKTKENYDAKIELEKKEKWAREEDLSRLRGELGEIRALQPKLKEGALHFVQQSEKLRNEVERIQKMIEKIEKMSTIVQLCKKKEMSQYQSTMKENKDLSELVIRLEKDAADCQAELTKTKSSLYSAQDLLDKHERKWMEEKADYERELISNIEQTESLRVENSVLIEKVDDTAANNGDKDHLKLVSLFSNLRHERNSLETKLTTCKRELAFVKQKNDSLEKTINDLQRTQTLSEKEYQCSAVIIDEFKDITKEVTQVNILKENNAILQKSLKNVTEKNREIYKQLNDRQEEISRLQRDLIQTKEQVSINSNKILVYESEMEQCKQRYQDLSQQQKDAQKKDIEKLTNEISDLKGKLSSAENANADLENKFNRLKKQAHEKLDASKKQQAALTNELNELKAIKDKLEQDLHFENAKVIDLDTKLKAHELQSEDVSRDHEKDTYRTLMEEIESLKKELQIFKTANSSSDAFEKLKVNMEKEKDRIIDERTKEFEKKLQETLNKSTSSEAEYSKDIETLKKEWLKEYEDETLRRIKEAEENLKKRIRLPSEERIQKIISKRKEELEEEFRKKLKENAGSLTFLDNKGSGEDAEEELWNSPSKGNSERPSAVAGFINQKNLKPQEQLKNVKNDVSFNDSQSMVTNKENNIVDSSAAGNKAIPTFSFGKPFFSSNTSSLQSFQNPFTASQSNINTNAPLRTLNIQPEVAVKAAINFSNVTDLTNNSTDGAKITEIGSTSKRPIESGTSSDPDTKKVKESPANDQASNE

Columns and labels:
Assay in all cases: affinity purification with mass spectrometry
[1] = biological target: T1, Nup133-GFP (S. cerevisiae) (UniProt P36161)
T1 sequence: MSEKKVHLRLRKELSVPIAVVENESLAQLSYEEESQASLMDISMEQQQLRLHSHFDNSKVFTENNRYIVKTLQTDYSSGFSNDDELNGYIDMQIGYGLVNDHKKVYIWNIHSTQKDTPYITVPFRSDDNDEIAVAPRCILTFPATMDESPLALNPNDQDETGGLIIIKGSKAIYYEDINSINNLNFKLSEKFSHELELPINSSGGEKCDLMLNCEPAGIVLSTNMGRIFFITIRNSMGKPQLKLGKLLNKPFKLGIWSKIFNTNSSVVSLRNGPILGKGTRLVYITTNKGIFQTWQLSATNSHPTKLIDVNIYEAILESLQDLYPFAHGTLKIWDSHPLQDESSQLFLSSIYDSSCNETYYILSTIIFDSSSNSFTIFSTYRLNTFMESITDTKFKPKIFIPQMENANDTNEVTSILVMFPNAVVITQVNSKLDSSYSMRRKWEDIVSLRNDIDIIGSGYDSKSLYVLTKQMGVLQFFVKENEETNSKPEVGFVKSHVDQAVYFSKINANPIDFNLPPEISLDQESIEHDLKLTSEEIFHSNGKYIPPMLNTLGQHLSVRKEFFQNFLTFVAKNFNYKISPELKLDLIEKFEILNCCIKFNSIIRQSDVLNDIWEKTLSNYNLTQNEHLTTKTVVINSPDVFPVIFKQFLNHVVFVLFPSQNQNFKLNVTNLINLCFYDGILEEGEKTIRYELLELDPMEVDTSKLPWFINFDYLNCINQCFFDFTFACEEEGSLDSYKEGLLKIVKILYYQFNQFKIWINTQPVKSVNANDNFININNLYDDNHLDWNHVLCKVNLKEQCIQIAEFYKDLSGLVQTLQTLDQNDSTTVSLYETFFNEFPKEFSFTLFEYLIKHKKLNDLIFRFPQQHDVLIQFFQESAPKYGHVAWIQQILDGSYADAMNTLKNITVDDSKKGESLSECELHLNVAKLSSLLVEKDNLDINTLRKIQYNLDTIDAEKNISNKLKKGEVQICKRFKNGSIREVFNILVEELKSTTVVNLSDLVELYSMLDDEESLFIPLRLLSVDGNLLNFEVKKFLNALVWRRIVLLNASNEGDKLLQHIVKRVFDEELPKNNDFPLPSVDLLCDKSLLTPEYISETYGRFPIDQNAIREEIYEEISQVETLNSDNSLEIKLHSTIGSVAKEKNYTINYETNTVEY

[2] = biological target: Mlp1-PrA (S. cerevisiae) (UniProt Q02455)
[3] = biological target: T1, Nup133-GFP (S. cerevisiae); remark: listed apart in the source

Row | Substance | binding [1] | binding [2] | binding [3]
1 | poly(A)-binding protein Pab1 (from UniProt P04147 1-577) | binds | binds | binds
2 | Mlp2 (from UniProt P40457 1-1679) | binds | binds | –
3 | Mlp1-PrA (from UniProt Q02455 1-1875) | binds | – | –

Read-outs that look alike come from different tables or passages of the source. These are yes or no findings as the source states them, for the method shown. Binding seen in cells or lysates may run through a third protein. A yes stands for co-enrichment or nearness to the bait. Other partners may have been found. For part of these data: Tags and fused reporters may be left off the sequences shown.
